From paper PMC9657785
No constants are given. Whether binding was seen depends on the method and setting. For some assays here: Binding seen in cells or lysates may run through a third protein. Some results given as binding are weak or reduced against the parent protein; the word gives no strength.

Sequences of proteins named here, by UniProt entry; tags and fusion partners are left off.
UniProt O75317: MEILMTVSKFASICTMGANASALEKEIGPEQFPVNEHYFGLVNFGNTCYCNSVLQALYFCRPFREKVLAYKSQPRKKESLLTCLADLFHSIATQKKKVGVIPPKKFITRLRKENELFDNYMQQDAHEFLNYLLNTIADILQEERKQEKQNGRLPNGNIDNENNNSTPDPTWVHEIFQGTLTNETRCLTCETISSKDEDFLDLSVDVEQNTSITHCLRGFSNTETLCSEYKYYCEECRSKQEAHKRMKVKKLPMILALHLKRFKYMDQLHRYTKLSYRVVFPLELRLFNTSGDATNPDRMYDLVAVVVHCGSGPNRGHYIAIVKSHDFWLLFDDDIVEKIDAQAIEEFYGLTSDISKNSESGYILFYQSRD
UniProt Q07812: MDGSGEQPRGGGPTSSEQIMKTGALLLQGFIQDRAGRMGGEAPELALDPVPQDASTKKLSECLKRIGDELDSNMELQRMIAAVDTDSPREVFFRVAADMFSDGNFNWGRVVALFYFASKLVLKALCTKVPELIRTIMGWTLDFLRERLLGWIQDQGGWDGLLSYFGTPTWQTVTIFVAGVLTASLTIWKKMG

What was measured:
[1] = molecular target: ubiquitin-specific protease 12 (USP12), yeast two-hybrid bait (human (cDNA from HeLa cells)) (UniProt O75317); assay: two-hybrid; AH109 yeast; USP family members as bait (-Trp), then pGAD424-Bax; -Leu/-Trp minimal medium plates with 4 mg/mL X-α-gal; blue colonies
[2] = molecular target: Bax, as used in the immunoprecipitation (human (cDNA from HeLa cells)) (UniProt Q07812); assay: co-IP; cell lysates rotated with antibodies at 4 °C overnight, Protein A/G PLUS agarose beads 2 h; lysis buffer 50 mM Tris-HCl pH 7.5, 1 mM EDTA, 10% glycerol, 300 mM NaCl, 1% Triton X-100

Row | binding [1] | binding [2] | Substance
1 | binds | – | Bax, yeast two-hybrid prey (pGAD424-Bax) (from UniProt Q07812 1-192)
2 | – | binds | ubiquitin-specific protease 12 (USP12), as used in the immunoprecipitation and GST pull-down (from UniProt O75317 1-370) (enzyme)
